The supplement of paper PMC12889115
Some of the results follow. Values are raw readings; no control value is given beside them.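 First-pass screen: polymyxin B was added at a level that permeabilizes the Salmonella outer membrane while sparing the inner membrane. DMSO wells, with and without polymyxin B, defined maximum growth. Because plates differed from one another, each plate's data were ranked separately and the compounds with the lowest OD600 were carried forward as hits.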

Tested on: Salmonella enterica serovar Typhimurium SL1344
Experiment: bacterial growth OD600 after 18 h with compound and polymyxin B; higher = more bacterial growth (less inhibition)
Conditions: 50 µM, Mueller-Hinton broth

Row | Compound | bacterial growth OD600 (polymyxin B 0.75 µg/mL) | bacterial growth OD600 (polymyxin B 1 µg/mL)
1 | CCN(Cc1nccn1C)C(=O)c1ccc(N2CCCC(CO)C2)nc1 (stereo not given) | 0.811 | –
2 | O=C1CCCCN1CCC(=O)N1CCCC(CCc2cccc(F)c2)C1 (stereo not given) | 0.857 | –
3 | CCN(Cc1ccncc1)C(=O)c1coc(COc2cccc(F)c2)n1 | – | 0.941
4 | CC(=O)CCC(=O)N(CCc1ccccc1)CC1CCCN(C)C1 (stereo not given) | – | 0.918
5 | CC(C)CC(=O)C1CCCN(C(=O)CC2(c3ccc(-c4ccccc4)cc3)CC(=O)N(C)C2=O)C1 (stereo not given) | -0.066 | –
6 | CC(C)NC(=O)N1CCCC(CNC(=O)c2ccccc2Cl)C1 (stereo not given) | 0.777 | –
7 | CCOC(=O)C1(CCCc2ccccc2)CCN(C2CCSCC2)CC1 | – | 0.77
8 | Cc1nc(N2CCC(C(=O)NCc3ccc(N4CCOCC4)cc3)CC2)nc2ccc(C(C)C)cc12 | 0.688 | –
9 | Cc1ccc(NC2CCCN(C(=O)c3cc4ccccc4cn3)C2)cc1C (stereo not given) | – | 0.91
10 | Cc1cccc(CN2C[C@H](O)[C@@H](N3CCN(c4ccccn4)CC3)C2)c1 | 0.826 | –
11 | COc1ccccc1CN1CCCC(N2CCN(c3ccccc3C)CC2)C1 (stereo not given) | – | 0.993
12 | CCCNC(=O)NCc1cccnc1N1CCN(c2ccccc2C)CC1 | – | 0.011
13 | COc1ccc(CCN2CC(C(=O)N3CCCCCCC3)CCC2=O)cc1 (stereo not given) | – | 0.887
14 | COc1cc(CC(=O)N2CCC(n3c(C4CCCO4)nc4cc(C(F)(F)F)ccc43)CC2)cc(OC)c1OC (stereo not given) | 0.782 | –
15 | CCOC(=O)CNC(=O)N1C[C@H]2OC(=O)N(CCc3ccc(OC)cc3)[C@H]2C1 | – | 0.9
16 | COc1ccc(C(=O)Nc2ccnn2C2CCN(C(=O)CSC)CC2)cc1 | – | 1.24
17 | COc1ccc(CC(=O)NC2CCCN(CCCc3ccccc3)C2)cc1OC (stereo not given) | – | 1.18
18 | Cc1c(CC(=O)N(C)Cc2ccncn2)c2c(n1Cc1ccccc1)CCCC2=O | 0.833 | –
19 | CN(CC1COCCO1)C(=O)CC1c2ccccc2CCc2ccccc21 (stereo not given) | 0.683 | –
20 | O=C(Nc1ccnn1C1CCN(C(=O)c2ccccn2)CC1)c1ccc2c(c1)OCO2 | – | 0.946
21 | COc1cccc(CNC(=O)CCC2(Cc3ccc(-c4ccccc4)cc3)CCC(=O)N2)c1OC (stereo not given) | 0.38 | –
22 | Cc1ccccc1-c1cnnc(NCCc2nc(C)c3c(n2)CCCC3)n1 | – | 0.997
23 | CC(C)c1nc(C(=O)N2CCc3onc(-c4ccccc4F)c3C2)cs1 | 0.002 | –
24 | CSc1ncc(CN2CCc3c([nH]c4ccccc34)C2c2cccc(O)c2)cn1 (stereo not given) | – | 0.003
25 | COc1ccccc1Oc1ncccc1CNC(=O)c1cscn1 | 0.783 | –
26 | COc1ccc(-c2nn(-c3ccccc3C)cc2CN(C)CCN2CCOCC2)cc1F | – | 0.823
27 | CSCCCNC(=O)c1cn(CC(C)C)cc(C(=O)N2CCCCCC2)c1=O | 1 | –
28 | COc1cc2nc(-c3cc4c(c(OC)c3)OCCN(C(=O)c3ccccc3F)C4)cc(C)c2cc1OC | 0.845 | –
29 | CC(C)c1c(C(=O)NCC2(N3CCOCC3)CCCC2)cnn1-c1nccc(-c2ccccc2F)n1 | 0.84 | –
30 | CC(CCc1ccc(O)cc1)N1CCC(N2CCC(C(=O)NC3CC3)CC2)CC1 (stereo not given) | – | 1.04

Part of the list above, reformatted:
Cc1ccc(NC2CCCN(C(=O)c3cc4ccccc4cn3)C2)cc1C (stereo not given)
  bacterial growth OD600 (polymyxin B 1 µg/mL): 0.91
Cc1c(CC(=O)N(C)Cc2ccncn2)c2c(n1Cc1ccccc1)CCCC2=O
  bacterial growth OD600 (polymyxin B 0.75 µg/mL): 0.833
